These are yes or no findings as the source states them, for the method shown. Some binding calls cover weakened binding; strength is not graded here. Where a sequence is shown, tags or fusion partners need not be part of it.
Tests used:
[1] = biological target: phospho-GST-Furin-CD (739-794), co-expressed with CK-II (UniProt P09958); experiment: pull-down
[2] = biological target: T1, phospho-GST-Serinc3-L10 (354-404), co-expressed with CK-II (human) (UniProt Q13530); experiment: pull-down
T1 sequence (chain, CKII-mediated phosphorylation at positions 367, 380, 383, and 404 (LC/MS)): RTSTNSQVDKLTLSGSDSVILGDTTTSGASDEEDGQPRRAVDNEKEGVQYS

By UniProt entry, the sequences of proteins in these tests, tags left out. Residues count along the entry.
UniProt P09958, residues 739-794: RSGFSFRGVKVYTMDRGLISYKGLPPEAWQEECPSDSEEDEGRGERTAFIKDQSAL

B1: MBP-µ1 (158-423), C-terminal two-thirds of the µ subunit of AP-1 fused to maltose binding protein (domain or fragment, UniProt P35585 158-423)
chain: SWRSEGIKYRKNEVFLDVIEAVNLLVSANGNVLRSEIVGSIKMRVFLSGMPELRLGLNDKVLFDNTGRGKSKSVELEDVKFHQCVRLSRFENDRTISFIPPDGEFELMSYRLNTHVKPLIWIESVIEKHSHSRIEYMVKAKSQFKRRSTANNVEIHIPVPNDADSPKFKTTVGSVKWVPENSEIVWSVKSFPGGKEYLMRAHFGLPSVEAEDKEGKPPISVKFEIPYFTTSGIQVRYLKIIEKSGYQALPWVRYITQNGDYQLRTQ
- binding [1]: binds
- binding [2]: binds
